± gives the standard deviation of the averaged measurements. Some of the results follow.
Compound: Nc1nc2c(ncn2[C@@H]2O[C@H](COP(=O)(O)OP(=O)(O)OP(=O)(O)O)[C@@H](O)[C@H]2O)c(=O)[nH]1 [guanosine triphosphate]
Experiment: NP40-soluble protein abundance relative to vehicle (solubility fold change) (ratio); higher = more soluble protein in presence of GTP
Procedure, shortened: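 Across three independent experiments, values are fold changes against the detergent-processed vehicle for each replicate, based on vsn-normalised intensities. The samples were Jurkat crude lysate treated with eight concentrations (0.1 to 10 mM) for 10 min at room temperature and then 3 min at 37 °C. Lysate was solubilised with 0.8% NP40 and benzonase, ultracentrifuged, and the supernatant analysed by TMT-labelled LC-MS/MS.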

Chains of the proteins cited; added tags and fusions are not shown. Lines headed by an entry give the natural chain unless they say otherwise; changes in a name come on top.
UniProt Q9HB07: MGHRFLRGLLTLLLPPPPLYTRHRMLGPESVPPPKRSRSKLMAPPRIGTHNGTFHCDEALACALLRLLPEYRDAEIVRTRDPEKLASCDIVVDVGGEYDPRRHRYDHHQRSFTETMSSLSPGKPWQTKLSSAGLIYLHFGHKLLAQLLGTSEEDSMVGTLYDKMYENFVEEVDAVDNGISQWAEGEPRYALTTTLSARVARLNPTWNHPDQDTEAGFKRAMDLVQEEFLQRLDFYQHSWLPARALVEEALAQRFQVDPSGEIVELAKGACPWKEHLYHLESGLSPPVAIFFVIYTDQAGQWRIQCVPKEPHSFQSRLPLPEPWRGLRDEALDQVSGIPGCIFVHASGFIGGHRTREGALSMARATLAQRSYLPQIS
UniProt Q567U6, whole entry: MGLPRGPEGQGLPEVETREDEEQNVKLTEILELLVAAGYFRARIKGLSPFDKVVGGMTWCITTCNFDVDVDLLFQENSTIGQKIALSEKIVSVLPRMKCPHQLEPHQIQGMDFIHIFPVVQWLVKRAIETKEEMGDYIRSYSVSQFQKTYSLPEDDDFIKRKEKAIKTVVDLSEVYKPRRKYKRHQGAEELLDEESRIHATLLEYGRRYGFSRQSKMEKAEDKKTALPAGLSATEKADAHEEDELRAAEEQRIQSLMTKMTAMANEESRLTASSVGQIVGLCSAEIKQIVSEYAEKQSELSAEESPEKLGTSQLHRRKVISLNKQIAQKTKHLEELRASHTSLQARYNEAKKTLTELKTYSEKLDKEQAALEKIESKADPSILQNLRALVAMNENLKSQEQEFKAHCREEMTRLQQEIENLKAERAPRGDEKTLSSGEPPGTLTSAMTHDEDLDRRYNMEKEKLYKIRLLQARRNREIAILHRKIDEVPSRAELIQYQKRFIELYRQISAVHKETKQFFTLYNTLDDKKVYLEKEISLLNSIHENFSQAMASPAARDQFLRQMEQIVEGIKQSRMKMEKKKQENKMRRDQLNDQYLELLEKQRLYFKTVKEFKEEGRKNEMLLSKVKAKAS
UniProt P07766, whole entry: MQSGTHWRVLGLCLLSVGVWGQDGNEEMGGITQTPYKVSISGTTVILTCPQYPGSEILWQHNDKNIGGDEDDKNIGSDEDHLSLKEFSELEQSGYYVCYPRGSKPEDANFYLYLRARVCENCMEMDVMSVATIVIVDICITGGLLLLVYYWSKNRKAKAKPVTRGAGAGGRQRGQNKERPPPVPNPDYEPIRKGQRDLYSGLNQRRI
UniProt Q9NUM4, whole entry: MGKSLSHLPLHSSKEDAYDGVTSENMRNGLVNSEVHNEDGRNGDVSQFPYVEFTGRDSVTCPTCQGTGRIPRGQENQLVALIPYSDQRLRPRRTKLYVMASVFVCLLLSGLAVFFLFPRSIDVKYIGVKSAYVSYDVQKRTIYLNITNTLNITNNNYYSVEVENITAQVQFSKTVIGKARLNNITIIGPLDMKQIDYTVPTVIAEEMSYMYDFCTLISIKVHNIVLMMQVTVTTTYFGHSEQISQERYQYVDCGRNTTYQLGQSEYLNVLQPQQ
UniProt P22234: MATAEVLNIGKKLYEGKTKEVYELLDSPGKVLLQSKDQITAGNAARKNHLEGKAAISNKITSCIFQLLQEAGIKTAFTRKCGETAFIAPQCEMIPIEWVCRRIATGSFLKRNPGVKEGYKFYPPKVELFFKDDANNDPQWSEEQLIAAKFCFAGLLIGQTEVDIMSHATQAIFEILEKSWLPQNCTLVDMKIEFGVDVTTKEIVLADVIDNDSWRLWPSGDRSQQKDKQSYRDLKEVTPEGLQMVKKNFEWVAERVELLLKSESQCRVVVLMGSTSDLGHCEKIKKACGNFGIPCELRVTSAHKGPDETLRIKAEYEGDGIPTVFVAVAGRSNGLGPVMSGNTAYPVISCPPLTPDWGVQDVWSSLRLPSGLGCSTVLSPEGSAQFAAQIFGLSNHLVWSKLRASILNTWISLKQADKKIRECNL
UniProt Q5BKY9: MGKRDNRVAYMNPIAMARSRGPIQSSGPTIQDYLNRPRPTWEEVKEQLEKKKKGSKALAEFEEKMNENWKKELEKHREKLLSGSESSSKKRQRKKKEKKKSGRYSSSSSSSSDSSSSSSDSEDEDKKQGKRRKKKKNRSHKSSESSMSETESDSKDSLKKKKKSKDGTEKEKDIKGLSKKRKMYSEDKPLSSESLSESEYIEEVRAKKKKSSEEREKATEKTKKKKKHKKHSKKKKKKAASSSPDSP
UniProt Q7L1V2: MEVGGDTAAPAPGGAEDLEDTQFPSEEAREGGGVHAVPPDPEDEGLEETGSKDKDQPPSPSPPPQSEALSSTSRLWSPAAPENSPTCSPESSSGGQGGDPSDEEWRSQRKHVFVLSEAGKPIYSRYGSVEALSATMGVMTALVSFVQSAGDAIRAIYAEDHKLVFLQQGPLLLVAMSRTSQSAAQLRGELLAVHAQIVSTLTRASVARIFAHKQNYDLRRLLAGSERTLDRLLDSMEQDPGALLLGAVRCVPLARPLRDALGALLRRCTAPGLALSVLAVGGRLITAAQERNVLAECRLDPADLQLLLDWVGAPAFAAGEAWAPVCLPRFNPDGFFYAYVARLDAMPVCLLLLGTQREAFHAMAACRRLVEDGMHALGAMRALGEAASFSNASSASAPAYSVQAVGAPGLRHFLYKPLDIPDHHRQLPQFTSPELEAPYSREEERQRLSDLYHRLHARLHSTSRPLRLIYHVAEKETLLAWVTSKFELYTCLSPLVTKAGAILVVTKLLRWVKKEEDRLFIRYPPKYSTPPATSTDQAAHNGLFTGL
UniProt Q8N9N8: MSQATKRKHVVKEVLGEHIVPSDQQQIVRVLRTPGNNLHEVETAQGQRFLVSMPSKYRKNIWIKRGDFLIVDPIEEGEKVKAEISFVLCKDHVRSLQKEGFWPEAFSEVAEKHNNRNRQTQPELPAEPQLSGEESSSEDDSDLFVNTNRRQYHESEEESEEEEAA
UniProt Q9BRP4: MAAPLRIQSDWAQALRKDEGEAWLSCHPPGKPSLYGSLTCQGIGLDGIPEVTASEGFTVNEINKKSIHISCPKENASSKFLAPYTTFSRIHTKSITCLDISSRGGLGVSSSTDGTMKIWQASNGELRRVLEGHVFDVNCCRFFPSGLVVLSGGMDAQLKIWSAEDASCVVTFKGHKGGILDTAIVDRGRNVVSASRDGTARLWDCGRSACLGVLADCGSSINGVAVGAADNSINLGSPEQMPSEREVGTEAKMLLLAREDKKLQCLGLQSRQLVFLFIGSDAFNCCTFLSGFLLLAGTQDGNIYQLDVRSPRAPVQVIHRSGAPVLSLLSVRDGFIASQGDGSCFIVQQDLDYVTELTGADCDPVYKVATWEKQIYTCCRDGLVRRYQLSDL

Target | NP40-soluble protein abundance (concentration: 0.1mM) | NP40-soluble protein abundance (concentration: 0.5mM) | NP40-soluble protein abundance (concentration: 1mM) | NP40-soluble protein abundance (concentration: 2mM) | NP40-soluble protein abundance (concentration: 4mM) | NP40-soluble protein abundance (concentration: 6mM) | NP40-soluble protein abundance (concentration: 8mM) | NP40-soluble protein abundance (concentration: 10mM)
F8VQQ3 and related entries (UniProt Q9HB07) | 1.02 ± 0.018 | 0.994 ± 0.028 | 0.938 ± 0.04 | 0.915 ± 0.042 | 0.91 ± 0.059 | 0.905 ± 0.05 | 0.882 ± 0.05 | 0.866 ± 0.078
F8W9X7 and related entries (UniProt Q567U6) | 0.995 ± 0.033 | 1.01 ± 0.037 | 0.986 ± 0.036 | 0.979 ± 0.047 | 1 ± 0.026 | 0.986 ± 0.071 | 1.01 ± 0.074 | 0.984 ± 0.054
E9PSH8 and related entries (UniProt P07766) | 0.955 ± 0.049 | 0.991 ± 0.076 | 0.986 ± 0.071 | 0.958 ± 0.085 | 0.962 ± 0.082 | 0.96 ± 0.082 | 0.978 ± 0.068 | 0.983 ± 0.11
F2Z3N7 and related entries (UniProt Q9NUM4) | 0.98 ± 0.036 | 0.932 ± 0.076 | 1.15 ± 0.077 | 1.06 ± 0.048 | 0.84 ± 0.18 | 0.949 ± 0.045 | 0.989 ± 0.051 | 0.969 ± 0.078
E9PBS1 and related entries (UniProt P22234) | 0.941 ± 0.036 | 0.993 ± 0.078 | 0.926 ± 0.054 | 0.92 ± 0.076 | 0.917 ± 0.068 | 0.942 ± 0.087 | 0.9 ± 0.052 | 0.887 ± 0.055
G3XAI9 and related entries (UniProt Q5BKY9) | 0.887 ± 0.087 | 0.888 ± 0.084 | 0.976 ± 0.11 | 0.859 ± 0.12 | 0.835 ± 0.14 | 0.803 ± 0.13 | 0.803 ± 0.1 | 0.817 ± 0.083
E7EW32 and related entries (UniProt Q7L1V2) | 1.04 ± 0.11 | 1.09 ± 0.089 | 0.964 ± 0.1 | 0.978 ± 0.13 | 0.998 ± 0.04 | 0.992 ± 0.071 | 0.989 ± 0.11 | 0.944 ± 0.12
E9PLI6 and related entries (UniProt Q8N9N8) | 0.978 ± 0.032 | 0.971 ± 0.1 | 0.974 ± 0.061 | 0.931 ± 0.083 | 0.98 ± 0.12 | 0.902 ± 0.11 | 0.958 ± 0.08 | 0.948 ± 0.071
F5H0C4 and related entries (UniProt Q9BRP4) | 1.14 ± 0.12 | 1.11 ± 0.18 | 1.07 ± 0.1 | 1.12 ± 0.2 | 1.11 ± 0.12 | 1.09 ± 0.16 | 1.1 ± 0.11 | 1.07 ± 0.14
